Experimental data from PMC8626583, “Collagen’s primary structure determines collagen:HSP47 complex stoichiometry” (The Journal of Biological Chemistry, 2021).

Molecular target: T1, collagen model peptide Ac-(PPG)2PTGPRG(PPG)2-NH2
T1 sequence (peptide, N-terminal acetyl (Ac); C-terminal amide (NH2)): PPGPPGPTGPRGPPGPPG
Test: crystal structure; HSP47 H273N/H274N with Ac-(PPG)2PTGPRG(PPG)2-NH2, space group P2_(1); crystallization conditions not told; both purified

HSP47 double-mutant H273N/H274N (Canis lupus)
binding: binds

No constants are given. Whether binding was seen depends on the method and setting. Binding can be weak; no strength is given.
